The supplement of paper PMC9744312
Counter-ions that a name gives are not always drawn. The list shows a part of the results. Single values of this set are uncertain.

Test system: Peyronie's disease tunica albuginea primary fibroblasts
Test: inhibition of TGF-beta1-induced alpha-SMA expression (myofibroblast transformation), relative to TGF-beta1-only and untreated controls; higher = stronger inhibition of myofibroblast transformation
Conditions: 10 µM; TGF-beta1 10 ng/mL; 72 h

Row | Compound | inhibition of TGF-beta1-induced alpha-SMA expression [%]
1 | OB1OCc2cc(F)ccc21 [Tavaborole (AN-2690)] | 30
2 | O=C(OCC(O)CO)c1ccccc1Nc1ccnc2cc(Cl)ccc12 (centres undefined) [Glafenine HCl] | 30.7
3 | NC(=O)c1cn(Cc2c(F)cccc2F)nn1 [Rufinamide] | 5.16
4 | CC(C(=O)O)c1ccc(-c2ccccc2)c(F)c1 (centres undefined) [Flurbiprofen] | 49.4
5 | C[C@H]1O[C@@H](O[C@H]2[C@@H](O)C[C@H](O[C@H]3[C@@H](O)C[C@H](O[C@H]4CC[C@@]5(C)[C@H](CC[C@@H]6[C@@H]5C[C@@H](O)[C@]5(C)[C@@H](C7=CC(=O)OC7)CC[C@]65O)C4)O[C@@H]3C)O[C@@H]2C)C[C@H](O)[C@@H]1O [Digoxin] | > 100
6 | CC[C@]1(O)C[C@H]2CN(CCc3c([nH]c4ccccc34)[C@@](C(=O)OC)(c3cc4c(cc3OC)N(C=O)[C@H]3[C@@](O)(C(=O)OC)[C@H](OC(C)=O)[C@]5(CC)C=CCN6CC[C@]43[C@@H]65)C2)C1 [Vincristine sulfate] | 87.6
7 | Nc1nc(CC(=O)Nc2ccc(CCNC[C@H](O)c3ccccc3)cc2)cs1 [Mirabegron] | -4.58
8 | NC[C@@H]1O[C@H](O[C@H]2[C@@H](O)[C@H](O[C@@H]3[C@@H](O)[C@H](N)C[C@H](N)[C@H]3O[C@H]3O[C@H](CO)[C@@H](O)[C@H](O)[C@H]3N)O[C@@H]2CO)[C@H](N)[C@@H](O)[C@@H]1O [Paromomycin Sulfate] | 17.4
9 | COc1ccccc1OCC(O)CO (centres undefined) [Guaifenesin] | 7.44
10 | Cc1cc(=O)[nH]c(=S)[nH]1 [Methylthiouracil] | 13.1
11 | CN1[C@@H]2CC[C@H]1C[C@@H](OC(=O)c1c[nH]c3ccccc13)C2 [Tropisetron] | -0.994
12 | CN1[C@@H]2CC[C@H]1C[C@@H](OC(=O)c1c[nH]c3ccccc13)C2 [Tropisetron HCl] | 14.6
13 | Cc1cccc(C)c1OCC(C)N (centres undefined) [Mexiletine HCl] | -4.81
14 | CCN(CC)CCNC(=O)c1c(C)[nH]c(/C=C2\C(=O)Nc3ccc(F)cc32)c1C [Sunitinib Malate] | > 100
15 | CCN(CC)CCNC(=O)c1c(C)[nH]c(/C=C2\C(=O)Nc3ccc(F)cc32)c1C [Sunitinib] | 68.3
16 | COc1ccc(/C=C/C(=O)Nc2ccccc2C(=O)O)cc1OC [Tranilast] | 38.2
17 | Oc1ccc(/C=C/c2cc(O)cc(O)c2)cc1 [Resveratrol] | 13.6
18 | CCOC(=O)C1=C(COCCN)NC(C)=C(C(=O)OC)C1c1ccccc1Cl (centres undefined) [Amlodipine] | 22.1
19 | CCOC(=O)C1=C(COCCN)NC(C)=C(C(=O)OC)C1c1ccccc1Cl (centres undefined) [Amlodipine Besylate] | 23.2

2 successive records out of the list so far, for reference:
Row | Compound | inhibition of TGF-beta1-induced alpha-SMA expression [%]
3 | NC(=O)c1cn(Cc2c(F)cccc2F)nn1 [Rufinamide] | 5.16
4 | CC(C(=O)O)c1ccc(-c2ccccc2)c(F)c1 (centres undefined) [Flurbiprofen] | 49.4
